# Reference: patent publication US20080108894A1, “Methods and Systems of Analyzing Clinical Parameters and Methods of Producing Visual Images” (priority 2004, published 2008)
# System: myocardium
# Experiment: SI0 and A′ maps before and after contrast agent administration in a test dog
# Type: in vivo
# Experimental: FIG. 15 illustrates two examples of equatorial short axis SI0 (top) and A′ (bottom) maps. The ones on the left were generated in a test dog before contrast agent (CA) administration and those on the right were generated in the same dog 20 minutes after Gd(DTPA) administration. Average (+/−SD) SI0 values were 142+/−22 and 150+/−23 before and after CA administration, respectively. Note the great variability of SI0 values due to field inhomogeneity and regional differences in proton density. Average (+/−SD) A′ values were 1.9+/−0.01 and 1.9+/−0.02 before and after CA. […] No significant difference was found between SI0 values before (141.8±21.8) and 20 minutes after (150.4±22.6) CA administration. […] The parameter A′ (the parameter representing the accuracy of the 180° pulse), however, may in principle be influenced by the administration of a contrast agent, because paramagnetic agents alter the magnetic susceptibility of tissue. This may lead to local errors in the accuracy of the 180° pulse, unless the imager readjusts the 180° pulse for each use of the IR sequence. […] This is most likely due to the scanner's successful automatic recalibration of the 180° pulse. Thus, even if the susceptibility of the tissue in the imaged region of interest is affected by the presence of a contrast agent, the scanner corrects these slight changes by adjusting the 180° pulse, resulting in practically the same A′ values that were obtained in the absence of the contrast agent. Therefore, it was reasonable to fix the value of A′ to 1.9, and this constant number has been always used in the calculations.
smiles,measurement,setting,value
O=C([O-])CN(CCN(CC(=O)[O-])CC(=O)O)CCN(CC(=O)[O-])CC(=O)O.[Gd+3] [Gd(DTPA)],change in SI0 or A′ due to administration,before vs 20 minutes after Gd(DTPA),No significant change
same,Average A′ after CA administration,"myocardium, 20 minutes after Gd(DTPA), before CA 1.9+/−0.01",1.9+/−0.02
same,Average SI0 after CA administration,"myocardium, 20 minutes after Gd(DTPA), before CA 142+/−22 (141.8±21.8)",150.4±22.6 and 150+/−23

# “And” between values parts separate entries of the source, which are not always exact repeats. Equal values may be shown once.
